Several values for one entry are separate records, joined by “and”; a condition that tells them apart may be missing. Identical values can stand only once. Counter-ions that a name gives are not always drawn. Further values from the same series stand in other lists.
What was measured:
Format in all cases: in vivo
[1] = system: HVA release in the rat prefrontal cortex; assay: Microdialysis: HVA release in prefrontal cortex after I.P. administration; details: SON-117 3 mg/kg IP; T-1 h-T-30 min (pre-administration); individual animals; hydrochloride, 3 mg/kg
Protocol: (§1) The aim of the study was to evaluate, using microdialysis, the effects of an intraperitoneal (I.P.) administration in rats of three different doses of SON-117 on dopamine and its metabolites, serotonin and its metabolite (5-HIAA), and norepinephrine levels in prefrontal cortex.
(§2) Thirty-two adult male Wistar rats were used for the whole study (4 groups of eight animals planned for the study, Table 1).
(§3) Surgery was performed on rats weighing about 300 g at the beginning of the experiments. Rats were anaesthetized with Ketamine (50 mg/kg) & Xylazine (15 mg/kg) by intramuscular administration. The animals were placed in a stereotaxic apparatus in the flat-skull position at a constant setting of −3.3 mm between ear bars and the incisor bar. The animals were treated with a local anesthesic (xylocaine 1%, Astra Zeneca) and an analgesic (Temgesic, from Schering Plough, 0.05 mg/kg, s.c.). A rostrocaudal midline incision was made with a lancet to expose the dorsal skull surface. The “stereotaxic zero” was defined by the Bregma in accordance with Paxinos and Watson's atlas (1986). A hole was drilled in the skull with a drill and the meninges were pierced with a sterile needle to implant a CMA12 guide cannula which later received the dialysis probe.
(§4) Coordinates used for implanting guide cannula in prefrontal cortex from Bregma were anteroposterior 3.7 mm, mediolateral 0.8 mm, and dorsoventral −2 mm (top of the probe was at −5 mm). The guide cannula was fixed to the skull with two stainless steel screws (1.88 mm outside diameter) anchored. An application of dental cement was added. A plastic collar allowed each animal to be tethered to a Swivel assembly of the CMA 120 awake animal system. Following surgery, rats were kept in individual cages and allowed to recover for a minimum of 3-5 days before the experimentation. The rats were handled and put in plastic bowl for 10 min at least every day to habituate the animals to their new environment for the dialysis. An I.P. administration with saline was also performed every day.
(§5) Dialysis probes (CMA12/3 mm, membrane, 20 kD cut-off, Carnegie Medicine, Stockholm, Sweden), were carefully washed before inserting into the guide cannula. The wash was performed with the artificial cerebrospinal fluid (aCSF) medium (NaCl 147 mM, KCl 2.7 mM, CaCl2 1.2 mM, MgCl2 0.85 mM) at room temperature. The dialysis system was then equilibrated at 20° C. at a perfusion rate of 1 μl/min with a Carnegie pump (CMA100). All catheters (FEP tubing, internal volume of 1.2 μl/10 cm, and tubing adaptors) used for microdialysis were treated in the same conditions.
(§6) The probes duly prepared were inserted into the guide cannula and the CMA120 Swivel assembly secured to the animal using a plastic collar. Flow through the dialysis probe with aCSF was maintained at a rate of 1 μl/min during the whole experimentation. The first four fractions (corresponding to 2 hours) were discarded to avoid the effects of parenchymal disturbance and to ensure that an approximate steady-state level was reached. Fractions were then collected over a period of 8.5 h during which time the animals remained quiet. The dialysates were automatically collected with an autosampler (microfraction collector CMA 140, Carnegie Medicin) and stored at −80° C. until analysis. […] Perfusion was then maintained for 7 hours with aCSF. The dialysates (30 μl) were collected into 300 μl vials, transferred into dry ice and then kept frozen (−80° C.) until analysis. Frozen samples were shipped to a partner for analysis. At the end of the microdialysis study, a PBS with colored ink was perfused through the probe in order to visualize the dialyzed area.
Catecholamine assay: Concentrations of dopamine, DOPAC, HVA, 5-HIAA, 5-HT, and norepinephrin were determined for each sample by HPLC coupled with electrochemical detection.

[2] = system: norepinephrin release in the rat prefrontal cortex; assay: Microdialysis: norepinephrine release in prefrontal cortex after I.P. administration; details: hydrochloride; for NOREPINEPHRIN (% of respective basal), individual animal: 0.3 mg/kg I.P., c2-c9 = R#11,12,18,23,29,30,17,24; for Norepinephrin release, individual animals: 3 mg/kg IP, per animal R#15,16,21,22,27,28,09,10; for NOREPINEPHRIN in dialysate, individual animals: SON-117 0.1 mg/kg I.P., 0.1 mg/kg
Protocol: as §1, §2, §3, §4, §5, §6
(§7) Catecholamine assay: Concentrations of dopamine, DOPAC, HVA, 5-HIAA, 5-HT, and norepinephrin were determined for each sample by HPLC coupled with electrochemical detection. […]

[3] = system: 5-HT release in the rat prefrontal cortex; assay: Microdialysis: 5-HT release in prefrontal cortex after I.P. administration; details: hydrochloride; for 5-HT (% of respective basal), individual animal: 0.1 mg/kg I.P., c2-c9 = R#13,14,20,19,25,26,31,32; for 5-HT release, individual animals: 0.3 mg/kg I.P., one column per animal R#11,12,18,23,29,30,17,24; for 5-HT release (% of basal levels) measured in dialysates: SON-117 3 mg/kg IP, individual animals, 3 mg/kg
Protocol: as §1, §2, §3, §4, §5, §6, §7

[4] = T-30 min-T0 (before administration)
[5] = T-1 h 30-T-1 h (before administration)
[6] = T-1 h-T-30 min (before administration)

SMILES: Cc1nnc(-c2cc3c(OC[C@@H](O)CN4CCC(c5ccc(Cl)c(Cl)c5)CC4)cccc3o2)o1 [SON-117, (S)-1-(4-(3,4-dichlorophenyl)piperidino)-3-(2-(5-methyl-1,3,4-oxadiazol-2-yl)benzo(b)furan-4-yloxy)-2-propanol hydrochloride]
- HVA release (% of basal levels) measured in dialysates [1]: 102.14 % of basal levels and 114.02 % of basal levels and 96.62 % of basal levels and 108.28 % of basal levels and 102.56 % of basal levels and 94.16 % of basal levels and 104.10 % of basal levels and 102.75 % of basal levels
- NOREPINEPHRIN (% of respective basal), individual animal ([2]; T6 h 30-T7 h): 106.88 % of respective basal and 177.51 % of respective basal and 198.02 % of respective basal and 124.61 % of respective basal and 145.21 % of respective basal and 117.13 % of respective basal and 160.58 % of respective basal and 97.71 % of respective basal
- NOREPINEPHRIN (% of respective basal), individual animal ([2]; T6 h-T6 h 30): 155.95 % of respective basal and 92.51 % of respective basal
- NOREPINEPHRIN (% of respective basal), individual animal [2, 4]: 91.05 % of respective basal and 99.72 % of respective basal and 92.64 % of respective basal and 93.47 % of respective basal and 105.78 % of respective basal and 79.20 % of respective basal and 104.93 % of respective basal and 91.00 % of respective basal
- NOREPINEPHRIN (% of respective basal), individual animal [2, 5]: 104.69 % of respective basal and 97.58 % of respective basal and 106.89 % of respective basal and 110.24 % of respective basal and 96.60 % of respective basal and 109.72 % of respective basal and 102.28 % of respective basal and 114.98 % of respective basal
- NOREPINEPHRIN (% of respective basal), individual animal [2, 6]: 104.24 % of respective basal and 102.69 % of respective basal and 100.47 % of respective basal and 96.29 % of respective basal and 97.62 % of respective basal and 111.08 % of respective basal and 92.78 % of respective basal and 94.02 % of respective basal
- Norepinephrin release, individual animals ([2]; T0-T30 min): 83.80 % of respective basal and 117.15 % of respective basal and 86.45 % of respective basal and 99.99 % of respective basal and 75.18 % of respective basal and 99.40 % of respective basal and 105.73 % of respective basal and 92.56 % of respective basal
- Norepinephrin release, individual animals ([2]; T6 h 30-T7 h): 107.15 % of respective basal and 158.12 % of respective basal and 46.32 % of respective basal
- Norepinephrin release, individual animals [2, 4]: 96.67 % of respective basal and 105.91 % of respective basal and 99.20 % of respective basal and 98.51 % of respective basal and 90.82 % of respective basal and 92.21 % of respective basal and 94.30 % of respective basal and 101.73 % of respective basal
- Norepinephrin release, individual animals [2, 5]: 101.41 % of respective basal and 100.13 % of respective basal and 101.32 % of respective basal and 97.97 % of respective basal and 103.83 % of respective basal and 112.21 % of respective basal and 103.39 % of respective basal and 95.91 % of respective basal
- Norepinephrin release, individual animals [2, 6]: 101.93 % of respective basal and 93.96 % of respective basal and 99.48 % of respective basal and 103.52 % of respective basal and 105.36 % of respective basal and 95.58 % of respective basal and 102.31 % of respective basal and 102.36 % of respective basal
- NOREPINEPHRIN in dialysate, individual animals ([2]; T6 h 30-T7 h): 213.29 % of respective basal and 124.07 % of respective basal and 158.87 % of respective basal and 80.73 % of respective basal and 98.24 % of respective basal and 109.09 % of respective basal and 106.66 % of respective basal and 49.82 % of respective basal
- NOREPINEPHRIN in dialysate, individual animals ([2]; T6 h-T6 h 30): 98.91 % of respective basal and 59.68 % of respective basal
- NOREPINEPHRIN in dialysate, individual animals ([2]; T-30 min-T0 (pre-dose)): 86.88 % of respective basal and 96.74 % of respective basal and 99.36 % of respective basal and 96.59 % of respective basal and 87.30 % of respective basal and 92.37 % of respective basal and 88.10 % of respective basal and 83.32 % of respective basal
- NOREPINEPHRIN in dialysate, individual animals ([2]; T-1 h 30-T-1 h (pre-dose)): 123.08 % of respective basal and 109.14 % of respective basal and 102.00 % of respective basal and 104.00 % of respective basal and 103.03 % of respective basal (2×) and 112.64 % of respective basal and 118.36 % of respective basal
- NOREPINEPHRIN in dialysate, individual animals ([2]; T-1 h-T-30 min (pre-dose)): 90.04 % of respective basal and 94.13 % of respective basal and 98.64 % of respective basal and 99.40 % of respective basal and 109.67 % of respective basal and 104.59 % of respective basal and 99.26 % of respective basal and 98.32 % of respective basal
- 5-HT (% of respective basal), individual animal ([3]; T0-T30 min): 108.02 % of respective basal and 93.83 % of respective basal and 119.32 % of respective basal and 246.92 % of respective basal and 107.34 % of respective basal and 97.92 % of respective basal
- 5-HT (% of respective basal), individual animal ([3]; T6 h 30-T7 h): 97.91 % of respective basal and 541.29 % of respective basal and 114.61 % of respective basal and 244.32 % of respective basal
- 5-HT (% of respective basal), individual animal [3, 4]: 92.16 % of respective basal and 110.89 % of respective basal and 99.40 % of respective basal and 99.09 % of respective basal and 161.58 % of respective basal and 143.66 % of respective basal and 98.90 % of respective basal and 95.76 % of respective basal
- 5-HT (% of respective basal), individual animal [3, 5]: 108.25 % of respective basal and 86.31 % of respective basal and 94.30 % of respective basal and 103.54 % of respective basal and 24.35 % of respective basal and 38.46 % of respective basal and 95.89 % of respective basal and 93.96 % of respective basal
- 5-HT (% of respective basal), individual animal [3, 6]: 99.35 % of respective basal and 103.83 % of respective basal and 106.58 % of respective basal and 97.86 % of respective basal and 112.18 % of respective basal and 115.38 % of respective basal and 104.67 % of respective basal and 110.26 % of respective basal
- 5-HT release, individual animals ([3]; T0-T30 min): 129.03 % of respective basal and 89.70 % of respective basal and 92.85 % of respective basal and 99.56 % of respective basal and 102.65 % of respective basal and 301.33 % of respective basal and 98.83 % of respective basal and 43.23 % of respective basal
- 5-HT release, individual animals ([3]; T6 h 30-T7 h): 33.37 % of respective basal and 136.61 % of respective basal
- 5-HT release, individual animals [3, 4]: 73.58 % of respective basal and 119.76 % of respective basal and 102.47 % of respective basal and 102.92 % of respective basal and 109.00 % of respective basal and 97.01 % of respective basal and 104.74 % of respective basal and 45.92 % of respective basal
- 5-HT release, individual animals [3, 5]: 107.47 % of respective basal and 111.64 % of respective basal and 94.68 % of respective basal and 96.44 % of respective basal and 95.50 % of respective basal and 88.09 % of respective basal and 102.83 % of respective basal and 104.31 % of respective basal
- 5-HT release, individual animals [3, 6]: 118.31 % of respective basal and 68.82 % of respective basal and 102.81 % of respective basal and 100.54 % of respective basal and 94.29 % of respective basal and 107.10 % of respective basal and 92.03 % of respective basal and 149.23 % of respective basal
- 5-HT release (% of basal levels) measured in dialysates ([3]; T0-T30 min): 117.39 % of basal levels and 72.52 % of basal levels and 149.42 % of basal levels and 116.55 % of basal levels and 111.21 % of basal levels and 77.19 % of basal levels and 74.89 % of basal levels and 87.15 % of basal levels
- 5-HT release (% of basal levels) measured in dialysates ([3]; T-30 min-T0 (pre-administration)): 101.51 % of basal levels and 110.85 % of basal levels and 101.71 % of basal levels and 106.95 % of basal levels and 101.32 % of basal levels and 73.17 % of basal levels and 75.35 % of basal levels and 105.70 % of basal levels
- 5-HT release (% of basal levels) measured in dialysates ([3]; T-1 h 30-T-1 h (pre-administration)): 85.69 % of basal levels and 94.52 % of basal levels and 121.70 % of basal levels and 128.21 % of basal levels and 99.68 % of basal levels
- 5-HT release (% of basal levels) measured in dialysates ([3]; T-1 h-T-30 min (pre-administration)): 93.84 % of basal levels and 104.92 % of basal levels and 108.54 % of basal levels and 106.54 % of basal levels and 103.87 % of basal levels and 105.82 % of basal levels and 105.7 % of basal levels and 94.09 % of basal levels
